This note sets out measurements from doi:10.1101/2025.11.25.690410.

Chains of the proteins cited; added tags and fusions are not shown.
UniProt Q8C0J2: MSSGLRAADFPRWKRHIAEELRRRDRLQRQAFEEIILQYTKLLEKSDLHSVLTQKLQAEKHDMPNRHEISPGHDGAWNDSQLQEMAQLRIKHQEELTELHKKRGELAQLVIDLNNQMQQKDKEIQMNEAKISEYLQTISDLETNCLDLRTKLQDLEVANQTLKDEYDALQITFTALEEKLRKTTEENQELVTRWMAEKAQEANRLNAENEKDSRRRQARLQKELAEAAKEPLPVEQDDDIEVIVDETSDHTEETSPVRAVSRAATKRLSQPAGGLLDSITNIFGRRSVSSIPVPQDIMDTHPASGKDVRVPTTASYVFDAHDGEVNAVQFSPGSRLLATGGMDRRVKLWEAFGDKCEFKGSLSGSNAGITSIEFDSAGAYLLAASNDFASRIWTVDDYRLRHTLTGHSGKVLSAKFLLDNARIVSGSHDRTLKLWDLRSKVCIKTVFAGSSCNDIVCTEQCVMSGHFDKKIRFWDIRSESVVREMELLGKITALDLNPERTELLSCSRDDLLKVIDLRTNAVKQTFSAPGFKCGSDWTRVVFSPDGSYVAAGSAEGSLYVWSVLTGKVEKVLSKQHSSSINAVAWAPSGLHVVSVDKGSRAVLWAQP
UniProt Q8R317: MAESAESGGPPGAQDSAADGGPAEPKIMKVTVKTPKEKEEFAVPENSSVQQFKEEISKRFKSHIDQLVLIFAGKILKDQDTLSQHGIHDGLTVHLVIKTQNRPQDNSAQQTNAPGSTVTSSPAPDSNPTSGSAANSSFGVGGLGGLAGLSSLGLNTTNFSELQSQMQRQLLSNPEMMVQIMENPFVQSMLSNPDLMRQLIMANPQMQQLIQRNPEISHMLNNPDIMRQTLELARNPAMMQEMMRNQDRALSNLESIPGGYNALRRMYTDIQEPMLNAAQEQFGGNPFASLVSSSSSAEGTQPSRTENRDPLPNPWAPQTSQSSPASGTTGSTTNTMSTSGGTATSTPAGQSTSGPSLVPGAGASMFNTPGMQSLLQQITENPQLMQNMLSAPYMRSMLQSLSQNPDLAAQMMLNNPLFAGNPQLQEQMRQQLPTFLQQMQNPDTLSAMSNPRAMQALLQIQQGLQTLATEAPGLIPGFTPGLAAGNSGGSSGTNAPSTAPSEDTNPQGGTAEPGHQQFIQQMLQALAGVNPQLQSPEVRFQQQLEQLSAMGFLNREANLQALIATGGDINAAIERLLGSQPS

Read-outs that look alike come from different tables or passages of the source. No constants are given. Whether binding was seen depends on the method and setting. In cells and extracts the contact can be indirect. A yes stands for co-enrichment or nearness to the bait. Other partners may have been found.

Assay [1] has as its target ATG16L1 (mouse (endogenous in acute cortical slices)) (UniProt Q8C0J2). Kind of assay: affinity purification with mass spectrometry.
Assay [2] has the same target. Briefly: affinity purification with mass spectrometry. This is another data set of the same source.

On to Ubqln1 (from UniProt Q8R317 1-582), for which the binding entry in assay [1] is “binds”.

B1: Clasp2 (protein, UniProt Q8BRT1 1-1286)
chain: MRRLICKRICDYKSFDDEESVDGNRPSSAASAFKVPAPKTPGNPVSSARKPGSAGGPKVGGPSKEGGAGAVDEDDFIKAFTDVPSVQIYSSRELEETLNKIREILSDDKHDWDQRANALKKIRSLLVAGAAQYDCFFQHLRLLDGALKLSAKDLRSQVVREACITVAHLSTVLGNKFDHGAEAIVPTLFNLVPNSAKVMATSGCAAIRFIIRHTHVPRLIPLITSNCTSKSVPVRRRSFEFLDLLLQEWQTHSLERHAAVLVETIKKGIHDADAEARVEARKTYMGLRNHFPGEAETLYNSLEPSYQKSLQTYLKSSGSVASLPQSDRSSSSSQESLNRPFSSKWSTANPSTVAGRVSVGGSKANPLPGSLQRSRSDIDVNAAAGAKAHHAAGQAVRSGRLGAGALNPGSYASLEDTSDKMDGTASDDGRVRAKLSTPLVAVGNAKTDSRGRSRTKMVSQSQPGSRSGSPGRVLTTTALSTVSSGAQRVLVNSASAQKRSKIPRSQGCSREASPSRLSVARSSRIPRPSVSQGCSREASRESSRDTSPVRSFQPLGPGYGISQSSRLSSSVSAMRVLNTGSDVEEAVADALLLGDIRTKKKPARRRYESYGMHSDDDANSDASSACSERSYSSRNGSIPTYMRQTEDVAEVLNRCASSNWSERKEGLLGLQNLLKNQRTLSRIELKRLCEIFTRMFADPHGKVFSMFLETLVDFIQVHKDDLQDWLFVLLTQLLKKMGADLLGSVQAKVQKALDITRESFPNDLQFNILMRFTVDQTQTPSLKVKVAILKYIETLAKQMDPRDFTNSSETRLAVSRVITWTTEPKSSDVRKAAQSVLISLFELNTPEFTMLLGALPKTFQDGATKLLHNHLRNTGNGTQSSMGSPLTRPTPRSPANWSSPLTSPTNTSQNTLSPSAFDYDTENMNSEDIYSSLRGVTEAIQNFSFRSQEDMSEPVRRDPKKEDGDTICSGPGMSDPRAGGDAADGSQPALDNKASLLHSMPLHSSPRSRDYNPYNYSDSISPFNKSALKEAMFDDDADQFPDDLSLDHSDLVAELLKELSNHNERIEERKIALYELMKLTQEESFSVWDEHFKTILLLLLETLGDKEPTIRALALKVLKEILRHQPARFKNYAELTVMKTLEAHKDPHKEVVRSAEEAASVLATSISPEQCIKVLCPIIQTADYPINLAAIKMQTKVIERVSKETLNMLLPEIMPGLIQGYDNSESSVRKACVFCLVAVHAVIGDELKPHLSQLTGSKMKLLNLYIKRAQTGSAGADPTADVSGQS
As to B1, the binding entry in assay [2] is “binds”.

B2: ERC1 (protein, UniProt Q99MI1 1-1120)
chain: MYGSARSVGKVEPSSQSPGRSPRLPRSPRLGHRRTNSTGGSSGNSVGGGSGKTLSMENIQSLNAAYATSGPMYLSDHENVGAETPKSTMTLGRSGGRLPYGVRMTAMGSSPNIASSGVASDTIAFGEHHLPPVSMASTVPHSLRQARDNTIMDLQTQLKEVLRENDLLRKDVEVKESKLSSSMNSIKTFWSPELKKERALRKDEASKITIWKEQYRVVQEENQHMQMTIQALQDELRIQRDLNQLFQQDSSSRTGEPCVAELTEENFQRLHAEHERQAKELFLLRKTLEEMELRIETQKQTLNARDESIKKLLEMLQSKGLSAKATEEDHERTRRLAEAEMHVHHLESLLEQKEKENNMLREEMHRRFENAPDSAKTKALQTVIEMKDSKISSMERGLRDLEEEIQMLKSNGALSSEEREEEMKQMEVYRSHSKFMKNKVEQLKEELSSKDAQGEELKKRAAGLQSEIGQVKQELSRKDTELLALQTKLETLTNQFSDSKQHIEVLKESLTAKEQRAAILQTEVDALRLRLEEKETMLNKKTKQIQDMAEEKGTQAGEIHDLKDMLDVKERKVNVLQKKIENLQEQLRDKEKQMSSLKERVKSLQADTTNTDTALTTLEEALADKERTIERLKEQRDRDEREKQEEIDTYKKDLKDLREKVSLLQGDLSEKEASLLDIKEHASSLASSGLKKDSRLKTLEIALEQKKEECLKMESQLKKAHEATLEARASPEMSDRIQQLEREISRYKDESSKAQTEVDRLLEILKEVENEKNDKDKKIAELESLTSRQVKDQNKKVANLKHKEQVEKKKSAQMLEEARRREDSLSDSSQQLQDSLRKKDDRIEELEEALRESVQITAEREMVLAQEESARTNAEKQVEELLMAMEKVKQELESMKAKLSSTQQSLAEKETHLTNLRAERRKHLEEVLEMKQEALLAAISEKDANIALLELSSSKKKTQEEVAALKREKDRLVQQLKQQTQNRMKLMADNYEDDHFRSSRSNQTNHKPSPDQIIQPLLELDQNRSKLKLYIGHLTALCHDRDPLILRGLTPPASYNADGEQAAWENELQQMTQEQLQNELEKVEGDNAELQEFANTILQQIADHCPDILEQVVNALEESS
For the molecule B2, the binding entry in assay [2] is recorded as “binds”.

B3: Rab5b (protein, UniProt P61021 1-215)
chain: MTSRSTARPNGQPQASKICQFKLVLLGESAVGKSSLVLRFVKGQFHEYQESTIGAAFLTQSVCLDDTTVKFEIWDTAGQERYHSLAPMYYRGAQAAIVVYDITNQETFARAKTWVKELQRQASPSIVIALAGNKADLANKRMVEYEEAQAYADDNSLLFMETSAKTAMNVNDLFLAIAKKLPKSEPQNLGGAAGRSRGVDLHEQSQQNKSQCCSN
Regarding B3, the binding entry in assay [2] was “binds”.
